# Measurements published in PubChem BioAssay AID540276 (National Center for Advancing Translational Sciences (NCATS), 2011).
# Screen size: about 300,000 compounds; about 5,400 (1.8%) were called active. The inconclusive results got no clear call from the source; some entries with a clear call stand among them for comparison. Calls come from the whole dose curve; tested in HEK293 cells. Where the call is inconclusive, the potency comes from a doubtful curve fit.
# Experiment: qHTS for inhibitors of binding or entry into cells for Marburg Virus
# Conditions: Marburg virus pseudotyped entry inhibition, cell reporter; activity change, negative = inhibition: at 37.8 µM (top of the series) unless noted
# % is set by controls: 0 for no effect and ±100 for the full control effect; potency is the fitted concentration of half-maximal effect.
Compound,"activity change, negative = inhibition",Potency
CC(C)CC(=O)Nc1ccc(-c2cn3ccsc3n2)cc1,inactive: -12%,
Cc1cc(OCc2nc3ccccc3s2)ccc1N,,"inconclusive: 3.55 µM [inhibitor, single point]"
Cc1ccc2nc(-c3ccc(NC(=O)c4ccco4)cc3)[nH]c2c1,,"inconclusive: 0.259 µM [activator, full curve, poor fit]"
Cc1cc(C)cc(C(=O)NCCN2CCOCC2)c1,,"inconclusive: 6.31 µM [inhibitor, single point]"
CC(=O)N1CCCc2cc(S(=O)(=O)Nc3cccc(C)c3C)ccc21,,"inconclusive: 2.82 µM [inhibitor, single point]"
CCOc1ccc(OCCC(=O)N(CC(=O)Nc2ccccc2C(F)(F)F)Cc2ccco2)cc1,,"inconclusive: 14.1 µM [inhibitor, single point]"
COc1cc(C=O)ccc1Oc1nc(Nc2ccc(F)cc2F)nc(N2CCOCC2)n1,,"inconclusive: 7.94 µM [inhibitor, partial curve, poor fit]"
CC/C(=N/NC(=O)CNc1ccc(Cl)cc1C)c1ccccc1,,"inconclusive: 35.5 µM [inhibitor, single point]"
Cc1ccc(-c2csc(Nc3ccccn3)n2)cc1,,active: 2 µM
Cc1ccc(S(=O)(=O)N2CCOCC2)cc1NC(=O)COC(=O)C1=COCCO1,,"inconclusive: 2.24 µM [inhibitor, partial curve, poor fit]"
O=C(CSC1=NNC(c2ccccn2)S1)Nc1ccc(C(F)(F)F)cc1 (configuration not stated),,"inconclusive: 35.5 µM [inhibitor, single point]"
O=C(NCCc1ccccc1)/C(=N\O)c1ccccc1,,"inconclusive: 1.41 µM [inhibitor, full curve, poor fit]"
C/C(=N/OCO/N=C(\C)c1ccc(F)cc1F)c1ccc(F)cc1F,inactive: 9.61%,
N#Cc1cccc(C(c2nnnn2C2CCCC2)N2CCC(Cc3ccccc3)CC2)c1 (configuration not stated),,"inconclusive: 22.4 µM [inhibitor, single point]"
Cc1cccc(N2CCN(C(=O)c3ccc(Cl)c(S(=O)(=O)N4CCc5ccccc5C4)c3)CC2)c1C,,"inconclusive: 35.5 µM [inhibitor, single point]"
CCNC(=S)N/N=C/c1c(Cl)cccc1Cl,inactive: -1.18%,
CCOC(=O)/C(C#N)=C/Nc1ccccc1NS(=O)(=O)c1cccc(C(C)=O)c1,,"inconclusive: 22.4 µM [activator, partial curve, poor fit]"
COc1ccc(N(CC(=O)NCc2ccc(C)cc2)S(=O)(=O)c2c(C)[nH]c(=O)[nH]c2=O)cc1,inactive: 8.1% [at 46.1 µM],
CC1Cc2ccccc2N1C(=O)CCN1C(=O)C2C3C=CC(C3)C2C1=O (configuration not stated),inactive: 8.65%,
COc1ccc2cc(C(=O)C3CCCN(C(=O)Cc4c(C)noc4C)C3)ccc2c1 (configuration not stated),,"inconclusive: 22.4 µM [inhibitor, single point]"
CCCCSc1nc2ccc(Nc3nc(N4CCOCC4)nc(N4CCOCC4)n3)cc2s1,,"inconclusive: 0.891 µM [inhibitor, full curve, poor fit]"
Cc1ccc(NCC(=O)N/N=C\c2ccc([N+](=O)[O-])o2)cc1,,"inconclusive: 25.9 µM [inhibitor, single point]"
Cc1cccc(N2CCN(C(=O)c3ccoc3C)CC2)c1C,,"inconclusive: 32.6 µM [inhibitor, single point]"

Compound,"activity change, negative = inhibition",Potency
Cc1ccc(/C=N/Nc2nc3ccccc3s2)o1,,"inconclusive: 3.55 µM [inhibitor, full curve, poor fit]"
CCCCC(=O)Nc1cccc2c1C(=O)N(c1ccccc1)C2=O,inactive: 0.858%,
c1cncc(-c2nc(NCC3CCCO3)c3ccccc3n2)c1 (configuration not stated),,"inconclusive: 8.91 µM [inhibitor, partial curve]"
Cc1occc1-c1nnc(-c2cc([N+](=O)[O-])cc([N+](=O)[O-])c2)o1,,"inconclusive: 11.2 µM [inhibitor, single point]"
CN(C)S(=O)(=O)c1ccc(C(=O)N2CCN=C2SCc2cccnc2)cc1,,"inconclusive: 7.94 µM [inhibitor, partial curve, poor fit]"
CSc1nnc(C)c(=O)n1COC(=O)COc1ccccc1F,,"inconclusive: 5.01 µM [activator, partial curve, poor fit]"
COc1cccc(N2CCN(Cc3nnc(-c4ccc5c(c4)OCO5)o3)CC2)c1,inactive: -10.1% [at 46.1 µM],
CC1CC(N(C(=O)c2ccccc2Cl)c2ccccc2)c2ccccc2N1 (configuration not stated),,"inconclusive: 35.5 µM [inhibitor, partial curve, poor fit]"
CC1CCN(C(=O)C2CCN(S(=O)(=O)c3ccc4c(c3)CC(C)N4C(=O)C3CC3)CC2)CC1 (configuration not stated),,"inconclusive: 3.55 µM [inhibitor, partial curve, poor fit]"
Cc1ccc(S(=O)(=O)c2c(N)n(CCC(C)C)c3nc4ccccc4nc23)cc1,,"inconclusive: 13 µM [inhibitor, partial curve, poor fit]"
COc1cccc(C(=O)n2nc(-c3ccco3)nc2NCc2cccs2)c1,inactive: 3.9% [at 46.1 µM],
Cc1ccc(N(CC2CO2)S(=O)(=O)c2ccc([N+](=O)[O-])cc2)cc1 (configuration not stated),inactive: -1.8% [at 46.1 µM],
CCc1ccc(-c2cc3c(N4CCN(c5ccccc5)CC4)nccn3n2)cc1,,"inconclusive: 6.31 µM [activator, single point]"
Cc1cc(C)c2nc(NC(=O)[C@@H](NC(=O)c3cccc(S(=O)(=O)N4CCOCC4)c3)C(C)C)sc2c1,inactive: -33.7%,
CC(=O)N1N=C(c2ccc(Cl)cc2)CC1c1ccco1 (configuration not stated),,"inconclusive: 10 µM [activator, partial curve]"
Cc1c(CNC(=O)c2nn3c(c2Cl)NC(c2ccccc2)CC3C(F)(F)F)cnn1C (configuration not stated),,"inconclusive: 8.2 µM [inhibitor, partial curve, poor fit]"
CC(=O)c1ccc(N2CCN(C(=O)Nc3cccc(F)c3)CC2)cc1,,"inconclusive: 5.62 µM [activator, single point]"
O=C(CN1C(=O)c2cccc3cccc1c23)Nc1ccccc1C(=O)NCc1ccco1,,"inconclusive: 11.2 µM [inhibitor, partial curve, poor fit]"
COc1ccc(CNC(=O)C2CCN(c3nccs3)CC2)cc1,inactive: -1.29%,
Cc1cc(C)c2c(-n3cccc3)c(C(=O)NCCc3ccccc3)sc2n1,inactive: 0.678% [at 46.1 µM],
CCNc1nc(NCC)n2c(SCC(=O)Nc3ccccc3)nnc2n1,,"inconclusive: 1.12 µM [inhibitor, partial curve, poor fit]"
CC(C)CC(=O)Nc1c(C(=O)N2CCN(c3ccccc3F)CC2)oc2ccccc12,,"inconclusive: 22.4 µM [inhibitor, single point]"
O=C(O)c1ccc(CNCc2ccc(Cl)cc2Cl)cc1,,"inconclusive: 5.62 µM [activator, full curve, poor fit]"

# Sorted by formula weight (ascending): 19 of the compounds above.
Compound,"activity change, negative = inhibition",Potency
Cc1ccc(/C=N/Nc2nc3ccccc3s2)o1,,"inconclusive: 3.55 µM [inhibitor, full curve, poor fit]"
CC(=O)N1N=C(c2ccc(Cl)cc2)CC1c1ccco1 (configuration not stated),,"inconclusive: 10 µM [activator, partial curve]"
c1cncc(-c2nc(NCC3CCCO3)c3ccccc3n2)c1 (configuration not stated),,"inconclusive: 8.91 µM [inhibitor, partial curve]"
O=C(O)c1ccc(CNCc2ccc(Cl)cc2Cl)cc1,,"inconclusive: 5.62 µM [activator, full curve, poor fit]"
CCCCC(=O)Nc1cccc2c1C(=O)N(c1ccccc1)C2=O,inactive: 0.858%,
COc1ccc(CNC(=O)C2CCN(c3nccs3)CC2)cc1,inactive: -1.29%,
CSc1nnc(C)c(=O)n1COC(=O)COc1ccccc1F,,"inconclusive: 5.01 µM [activator, partial curve, poor fit]"
CC(=O)c1ccc(N2CCN(C(=O)Nc3cccc(F)c3)CC2)cc1,,"inconclusive: 5.62 µM [activator, single point]"
Cc1ccc(N(CC2CO2)S(=O)(=O)c2ccc([N+](=O)[O-])cc2)cc1 (configuration not stated),inactive: -1.8% [at 46.1 µM],
CCNc1nc(NCC)n2c(SCC(=O)Nc3ccccc3)nnc2n1,,"inconclusive: 1.12 µM [inhibitor, partial curve, poor fit]"
CC1CC(N(C(=O)c2ccccc2Cl)c2ccccc2)c2ccccc2N1 (configuration not stated),,"inconclusive: 35.5 µM [inhibitor, partial curve, poor fit]"
COc1cccc(C(=O)n2nc(-c3ccco3)nc2NCc2cccs2)c1,inactive: 3.9% [at 46.1 µM],
CCc1ccc(-c2cc3c(N4CCN(c5ccccc5)CC4)nccn3n2)cc1,,"inconclusive: 6.31 µM [activator, single point]"
COc1cccc(N2CCN(Cc3nnc(-c4ccc5c(c4)OCO5)o3)CC2)c1,inactive: -10.1% [at 46.1 µM],
CN(C)S(=O)(=O)c1ccc(C(=O)N2CCN=C2SCc2cccnc2)cc1,,"inconclusive: 7.94 µM [inhibitor, partial curve, poor fit]"
Cc1ccc(S(=O)(=O)c2c(N)n(CCC(C)C)c3nc4ccccc4nc23)cc1,,"inconclusive: 13 µM [inhibitor, partial curve, poor fit]"
CC(C)CC(=O)Nc1c(C(=O)N2CCN(c3ccccc3F)CC2)oc2ccccc12,,"inconclusive: 22.4 µM [inhibitor, single point]"
Cc1c(CNC(=O)c2nn3c(c2Cl)NC(c2ccccc2)CC3C(F)(F)F)cnn1C (configuration not stated),,"inconclusive: 8.2 µM [inhibitor, partial curve, poor fit]"
CC1CCN(C(=O)C2CCN(S(=O)(=O)c3ccc4c(c3)CC(C)N4C(=O)C3CC3)CC2)CC1 (configuration not stated),,"inconclusive: 3.55 µM [inhibitor, partial curve, poor fit]"

# Following part:

Compound,"activity change, negative = inhibition",Potency
COc1ccc(CC(=O)Nc2cccc(-c3nnc(-c4ccccc4)o3)c2)cc1OC,,active: 4.61 µM
CCCCOC(=O)Nc1ccc(C(=O)OC)cc1,,"inconclusive: 7.3 µM [activator, full curve, poor fit]"
CC(C(=O)Nc1ccccc1C(F)(F)F)n1nc(-c2ccccc2)c2c(c1=O)CCCC2 (configuration not stated),,"inconclusive: 7.08 µM [inhibitor, partial curve]"
COC(=O)c1cc(NC(=O)c2c(C)noc2C)ccc1N1CCOCC1,,"inconclusive: 1.12 µM [inhibitor, partial curve, poor fit]"
Cc1ccc2nc(NC(=O)c3cccs3)sc2c1,,active: 3.16 µM
Cc1cc(C)c(NC(=O)c2ccoc2C)c(C)c1,inactive: -5.29%,
CCc1ccc(NC(=S)Nc2ccc3cn[nH]c3c2)cc1,,"inconclusive: 2.24 µM [inhibitor, partial curve, poor fit]"
O=C(CCS(=O)(=O)c1ccccc1)N1CCN(c2cccc(C(F)(F)F)c2)CC1,,"inconclusive: 35.5 µM [inhibitor, single point]"
COc1cccc(NC(=O)C(=O)NCC2CCCN2S(=O)(=O)c2ccccc2)c1 (configuration not stated),,"inconclusive: 14.1 µM [inhibitor, single point]"
O=C(O)c1cccc(Nc2nc(-c3cccnc3)nc3ccccc23)c1,inactive: -3.55%,
CCOc1ccc(NC(=O)N2CCCC2C(=O)NCC2CCCO2)cc1 (configuration not stated),,"inconclusive: 0.316 µM [activator, partial curve, poor fit]"
Cc1ccc(CN2CCNC(=O)C2CC(=O)NCCCn2ncc3ccccc32)o1 (configuration not stated),inactive: 1.04% [at 46.1 µM],
O=C(COc1ccccc1)N(Cc1cc2ccccc2[nH]c1=O)CC1CCCO1 (configuration not stated),,"inconclusive: 2.06 µM [activator, full curve, poor fit]"
CC(C)NC(=O)CN1C(=O)c2ccccc2S1(=O)=O,,"inconclusive: 10 µM [activator, partial curve]"
CC(=O)c1cn(CC(=O)Nc2ccccc2)c2ccccc12,,"inconclusive: 6.51 µM [inhibitor, single point]"
CC(C)c1cc(C(=O)Nc2cc(Br)ccc2O)no1,inactive: 14.7%,
O=C(NN=Cc1ccccc1O)NN=Cc1ccccc1O,,active: 3.98 µM
COc1ccc(CSc2nc3ccccc3[nH]2)cc1,,"inconclusive: 11.2 µM [inhibitor, partial curve, poor fit]"
COC1=C(Nc2ccc(C)cc2)C(=O)c2ccccc2C1=O,,"inconclusive: 5.62 µM [activator, single point]"
Cc1ccc(-n2ncc3c(SCC(=O)NNC(=O)C(C)C)ncnc32)cc1,,"inconclusive: 28.2 µM [inhibitor, single point]"
O=C(C[n+]1cc(-c2ccc(F)cc2)n2c1CCC2)Nc1nc(-c2ccc(F)cc2)cs1,inactive: 13.3%,
